The values that follow come from the supplement of paper PMC3682954.

The assay concerns RAW 264.7. Kind of assay: cell viability (MTT) relative to vehicle control; higher = more viable cells. Particulars: stimulus: HMGB1 5 ug/ml, 18 h.
Setting [1] is: compound concentration: 1 ug/ml.

The structures appear in SMILES notation. Counter-ions that a name gives are not always drawn. ± gives the standard deviation of the averaged measurements. The list shows a part of the results. Many values rest on one well or one pass, so single values are uncertain.

Take `CO[C@@H]1[C@H](OC(=O)/C=C/C=C/C=C/C=C/C(=O)O)CC[C@]2(CO2)[C@H]1[C@@]1(C)O[C@@H]1CC=C(C)C` [Fumagillin]: the cell viability (compound concentration: 3 uM) came to 102%.
Same read-out and setting: the figure for `Nc1nc(N)c(N=O)c(OCC2CCCCC2)n1` is 120%; for `CCCCC[C@H](O)/C=C/[C@H]1[C@H](O)CC(=O)[C@@H]1C/C=C\CCCC(=O)O` [Dinoprostone] it is 109%.
Regarding `CSc1nc2cc(Cl)c(Oc3cccc(Cl)c3Cl)cc2[nH]1`, the cell viability (compound concentration: 3 uM) amounted to 102 ± 6.3%.
The same measure, in the same setting: the figure for `Cc1nc2ccccn2c(=O)c1CCN1CCC(C(=O)c2ccc(F)cc2)CC1` [Pirenperone] is 90.9 ± 13%; for `Cc1nc2ccccn2c(=O)c1CCN1CCC(C(=O)c2ccc(F)cc2)CC1` it is 102 ± 2.6%; for `CCC(=O)c1ccc2c(c1)N(CCCN(C)C)c1ccccc1S2` [Propionylpromazine hydrochloride] it is 103%.
Turning to `N/C(=N\C(=O)c1nc(Cl)c(N)nc1N)NCc1ccccc1` [Benzamil hydrochloride], under “compound concentration: 3 uM”, the cell viability stood at 101 ± 12%.
The same measure, in the same setting: the figure for `N/C(=N\C(=O)c1nc(Cl)c(N)nc1N)NCc1ccccc1` [Benzamil] is 109%; for `O=C(CCNNC(=O)c1ccncc1)NCc1ccccc1` [Nialamide] it is 105 ± 10%.
On to `O=C(CCNNC(=O)c1ccncc1)NCc1ccccc1`, for which the cell viability (compound concentration: 3 uM) turned out to be 101 ± 8.5%.
Same read-out and setting: the figure for `CCCn1c(=O)c2[nH]c(C3CCCC3)nc2n(CCC)c1=O` [8-Cyclopentyl-1,3-dipropylxanthine] is 102%; for `COC(=O)C[C@](O)(CCCC(C)(C)O)C(=O)O[C@@H]1C(OC)=C[C@]23CCCN2CCc2cc4c(cc2[C@H]13)OCO4` it is 1.33%; for `C/C=C/c1ccc(OC)cc1` [Anethole, trans-] it is 99.7%.
Same read-out and setting: next, `C/C=C/c1ccc(OC)cc1`: 105%; `CCCN(CCC)CCc1cccc2c1CC(=O)N2` [Ropinirole HCl]: 108%.
The same measure, in the same setting: the figure for `CCCN(CCC)CCc1cccc2c1CC(=O)N2` is 103%; for `CCCN(CCC)CCc1cccc2c1CC(=O)N2` [Ropinirole hydrochloride] it is 124%; for `N=C(N)c1ccc(N)cc1` [4-Aminobenzamidine dihydrochloride] it is 102%.
In the case of `O[C@H]1[C@H](O)[C@@H](O)[C@H](O)[C@@H](O)[C@H]1O`, the cell viability (compound concentration: 3 uM) came to 102%.
Still for that read-out and setting: the figure for `COc1cccc2c1C(=O)c1c(O)c3c(c(O)c1C2=O)C[C@@](O)(C(=O)CO)C[C@@H]3O[C@H]1C[C@H](N)[C@@H](O)[C@H](C)O1` is 2.34 ± 0.86%; for `CC(=O)O[C@H]1C(=O)[C@@]2(C)[C@H]([C@H](OC(=O)c3ccccc3)[C@]3(O)C[C@H](OC(=O)[C@H](O)[C@@H](NC(=O)c4ccccc4)c4ccccc4)C(C)=C1C3(C)C)[C@]1(OC(C)=O)CO[C@@H]1C[C@@H]2O` it is 91.5 ± 18%; for `CC(=O)O[C@H]1C(=O)[C@@]2(C)[C@H]([C@H](OC(=O)c3ccccc3)[C@]3(O)C[C@H](OC(=O)[C@H](O)[C@@H](NC(=O)c4ccccc4)c4ccccc4)C(C)=C1C3(C)C)[C@]1(OC(C)=O)CO[C@@H]1C[C@@H]2O` [Paclitaxel] it is 53.5%.
Consider `CC(=O)O[C@H]1C(=O)[C@@]2(C)[C@H]([C@H](OC(=O)c3ccccc3)[C@]3(O)C[C@H](OC(=O)[C@H](O)[C@@H](NC(=O)c4ccccc4)c4ccccc4)C(C)=C1C3(C)C)[C@]1(OC(C)=O)CO[C@@H]1C[C@@H]2O` [Taxol], for which the cell viability (compound concentration: 3 uM) is 89.8 ± 26%.
As to `Cc1[nH]c(=O)c(C#N)cc1-c1ccc2nccn2c1` [Olprinone hydrochloride], where the note is “compound concentration: 3 uM”, the cell viability worked out at 107%.
As for `NC[C@@H](O)c1ccc(O)c(O)c1` [L(-)-Norepinephrine bitartrate], the cell viability (compound concentration: 3 uM) was 111%.
Regarding `Nc1nc(Cl)nc2c1ncn2[C@@H]1O[C@H](COP(=O)(O)OP(=O)(O)OP(=O)(O)O)[C@H](O)C1O` (some centres not stated) [2-Chloroadenosine triphosphate tetrasodium], the cell viability (compound concentration: 3 uM) was determined as 105%.
The same measure, in the same setting: the figure for `C[C@@H]1C[C@H]2[C@@H]3C[C@H](F)C4=CC(=O)C=C[C@]4(C)[C@@]3(Cl)[C@@H](O)C[C@]2(C)[C@H]1C(=O)COC(=O)C(C)(C)C` [Clocortolone pivalate] is 74%.
`Cc1c(C)c2c(c(C)c1OC(=O)CCC(=O)O)CC[C@@](C)(CCC[C@H](C)CCC[C@H](C)CCCC(C)C)O2` [(+)-alpha-Tocopherol acid succinate]: the cell viability under setting [1] was determined as 104%.
For `Oc1cc2c(cc1O)CN(C(=S)NCCc1ccc(Cl)cc1)CCC2` [Capsazepine], the cell viability (compound concentration: 3 uM) is 106%.
Turning to `CCCCCC(=O)O[C@]1(C(C)=O)CC[C@H]2[C@@H]3CCC4=CC(=O)CC[C@]4(C)[C@H]3CC[C@@]21C`, the cell viability (compound concentration: 3 uM) was 109%.
For the compound `CCCCCCC(=O)OC1CC(C)(C)NC(C)(C)C1` [TMPH hydrochloride], the cell viability (compound concentration: 3 uM) turned out to be 111%.
Consider `Cc1cc(Cn2cnc3c2C[C@@H](C(=O)O)N(C(=O)C(c2ccccc2)c2ccccc2)C3)ccc1N`, for which the cell viability (compound concentration: 3 uM) is 90.1%.
For the compound `CC1(C)C[C@@H]1C(=O)N/C(=C\CCCCSC[C@H](N)C(=O)O)C(=O)O`, the cell viability (compound concentration: 3 uM) stood at 89.7%.
On to `CC1(C)C[C@@H]1C(=O)N/C(=C\CCCCSC[C@H](N)C(=O)O)C(=O)O` [Cilastatin], for which, where the note is “compound concentration: 3 uM”, the cell viability came to 93.8%.
Same read-out and setting: next, `Cc1coc2c1C(=O)C(=O)c1c-2ccc2c1CCCC2(C)C` [Tanshinone IIA]: 117%; `Cc1coc2c1C(=O)C(=O)c1c-2ccc2c1CCCC2(C)C`: 131%.
As for `CO/N=C(\C(=O)N[C@@H]1C(=O)N2C(C(=O)[O-])=C(C[N+]3(C)CCCC3)CS[C@H]12)c1csc(N)n1` [Cefepime], where the note is “compound concentration: 3 uM”, the cell viability was found to be 96.7%.
Take `O=C1Cc2c([nH]c3ccc(Br)cc23)-c2ccccc2N1` [Kenpaullone]: the cell viability (compound concentration: 3 uM) came to 114%.
On the same count and under the same terms, next, `CC[C@H]1OC(=O)C[C@@H](O)[C@H](C)[C@@H](O[C@@H]2O[C@H](C)[C@@H](O)[C@H](N(C)C)[C@H]2O)[C@@H](CCN2C[C@H](C)C[C@H](C)C2)C[C@@H](C)C(=O)/C=C/C(C)=C/[C@@H]1CO[C@@H]1O[C@H](C)[C@@H](O)[C@@H](OC)[C@H]1OC`: 106%; `CNCCCC12CCC(c3ccccc31)c1ccccc12` [Maprotiline]: 98.2%.
The same measure, in the same setting: the figure for `CNCCCC12CCC(c3ccccc31)c1ccccc12` [Maprotilline HCl] is 94.5%; for `CNCCCC12CCC(c3ccccc31)c1ccccc12` [Maprotiline hydrochloride] it is 105 ± 8.1%.
Still for that read-out and setting: the figure for `CNCCCC12CCC(c3ccccc31)c1ccccc12` is 107%; for `OC(c1cc(C(F)(F)F)nc2c(C(F)(F)F)cccc12)C1CCCCN1` (configuration not stated) [Mefloquine hydrochloride] it is 99.4%.
Turning to `OC(c1cc(C(F)(F)F)nc2c(C(F)(F)F)cccc12)C1CCCCN1` (configuration not stated), under “compound concentration: 3 uM”, the cell viability came to 94.2%.
Same read-out and setting: next, `C[C@@H]1O[C@@H](OC[C@H]2O[C@@H](Oc3c(-c4ccc(OCCO)c(OCCO)c4)oc4cc(OCCO)cc(O)c4c3=O)[C@H](O)[C@@H](O)[C@@H]2O)[C@H](O)[C@H](O)[C@H]1O`: 107%; `CCN(CC)C(=O)/C(C#N)=C/c1cc(O)c(O)c([N+](=O)[O-])c1` [Entacapone]: 100 ± 16%.
As for `COc1cc(/C=C/C(=O)N2CCCCC2=O)cc(OC)c1OC`, the cell viability under setting [1] came out at 85.4%.
As for `CC1(C)O[C@@H]2C[C@H]3[C@@H]4CCC5=CC(=O)CC[C@]5(C)[C@@]4(F)[C@@H](O)C[C@]3(C)[C@]2(C(=O)CCl)O1` [Halcinonide], the cell viability (compound concentration: 3 uM) is 108%.
On the same count and under the same terms, next, `CC1(C)O[C@@H]2C[C@H]3[C@@H]4CCC5=CC(=O)CC[C@]5(C)[C@@]4(F)[C@@H](O)C[C@]3(C)[C@]2(C(=O)CCl)O1`: 118%; `C[C@]12C=CC(=O)C=C1CC[C@H]1[C@@H]3C[C@@H](O)[C@](O)(C(=O)CO)[C@@]3(C)C[C@H](O)[C@@]12F` [Triamcinolone]: 104 ± 11%.
In the case of `C[C@]12C=CC(=O)C=C1CC[C@H]1[C@@H]3C[C@@H](O)[C@](O)(C(=O)CO)[C@@]3(C)C[C@H](O)[C@@]12F`, the cell viability (compound concentration: 3 uM) was determined as 111%.
Same read-out and setting: the figure for `CC(=O)O[C@H]1C[C@@H]2CC[C@@H]3[C@H](CC[C@@]4(C)[C@H]3C[C@H]([N+]3(C)CCCCC3)[C@@H]4OC(C)=O)[C@@]2(C)C[C@@H]1N1CCCCC1` [Vecuronium bromide] is 100%.
Same read-out and setting: the figure for `CC(=O)O[C@H]1C[C@@H]2CC[C@@H]3[C@H](CC[C@@]4(C)[C@H]3C[C@H]([N+]3(C)CCCCC3)[C@@H]4OC(C)=O)[C@@]2(C)C[C@@H]1N1CCCCC1` is 107 ± 8.5%; for `CC(=O)O[C@H]1C[C@@H]2CC[C@@H]3[C@H](CC[C@@]4(C)[C@H]3C[C@H]([N+]3(C)CCCCC3)[C@@H]4OC(C)=O)[C@@]2(C)C[C@@H]1N1CCCCC1` [Vecuronium] it is 107%; for `Cc1cc(C)cc(OCC2CNC(=O)O2)c1` (configuration not stated) it is 111%.
Same read-out and setting: the figure for `C[C@@H](O)[C@H]1C(=O)N2C(C(=O)O)=C(S[C@@H]3CN[C@H](C(=O)N(C)C)C3)[C@H](C)[C@H]12` [Meropenem] is 97.8 ± 1.8%; for `C[C@@H](O)[C@H]1C(=O)N2C(C(=O)O)=C(S[C@@H]3CN[C@H](C(=O)N(C)C)C3)[C@H](C)[C@H]12` it is 95.6%; for `CCCCCCCC/C=C\CCCCCCCC(=O)NCCO` [N-Oleoylethanolamine] it is 110%.
Take `CC1(C)CC[C@]2(C(=O)O)CC[C@]3(C)C(=CC[C@@H]4[C@@]5(C)CC[C@H](O)C(C)(C)[C@@H]5CC[C@]43C)[C@@H]2C1` [Oleanolic acid; oleanol;  caryophyllin]: the cell viability under setting [1] turned out to be 96.4%.
As to `CC(C)NC[C@H](O)COc1cccc2ccccc12` [(S)-Propranolol hydrochloride], under “compound concentration: 3 uM”, the cell viability came to 110%.
Regarding `CC(C)NC[C@H](O)COc1cccc2ccccc12` [(S)-propranolol hydrochloride], for the setting “compound concentration: 3 uM”, the cell viability was found to be 90.6%.
Still for that read-out and setting: the figure for `CC(C)NC[C@H](O)COc1cccc2ccccc12` [Propranolol S(-)] is 101%.
Regarding `O=c1c(-c2ccc(O)cc2)coc2cc(O)ccc12`, the cell viability under setting [1] is 96.2%.
As to `O=c1c(-c2ccc(O)cc2)coc2cc(O)ccc12` [Daidzein], the cell viability (compound concentration: 3 uM) came to 97%.
As to `Clc1ccc(C(c2ccc(Cl)cc2)[n+]2ccn(CC(OCc3ccc(Cl)cc3Cl)c3ccc(Cl)cc3Cl)c2)cc1` (configuration not stated) [Calmidazolium chloride], under “compound concentration: 3 uM”, the cell viability is 108%.
